# The list shows a part of the results.
# Experiments:
# Test in all cases: glycan array binding signal (z-score within array); higher = stronger binding
# Conditions in all cases: glycan notation: IUPAC condensed, linker removed
# [1] = target: GlcNAc(b1-2)Gal(b1-3)GalNAc
# Summary of the method: (§1)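 Columns mapping to the same glycan were averaged after glycan names were converted to IUPAC-condensed notation. The data come from 3228 arrays in the Consortium for Functional Glycomics database, limited to those with an available protein sequence. Binding is reported as a within-array Z-score averaged across arrays of one protein sequence and across linkers.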
# [2] = target: GlcNAc(b1-2)Man(a1-3)[GlcNAc(b1-2)Man(a1-6)]Man(b1-4)GlcNAc(b1-4)GlcNAc
# Summary of the method: as §1
# [3] = target: GlcNAc(b1-2)Man(a1-3)[GlcNAc(b1-2)Man(a1-6)]Man(b1-4)GlcNAc(b1-4)[Fuc(a1-6)]GlcNAc
# Summary of the method: as §1
# [4] = target: GlcNAc(b1-2)Man(a1-3)[GlcNAc(b1-4)][GlcNAc(b1-2)Man(a1-6)]Man(b1-4)GlcNAc(b1-4)GlcNAc
# Summary of the method: as §1
# [5] = target: GlcNAc(b1-2)Man(a1-3)[GlcNAc(b1-4)][GlcNAc(b1-2)Man(a1-6)]Man(b1-4)GlcNAc(b1-4)[Fuc(a1-6)]GlcNAc
# Summary of the method: as §1
# [6] = target: GlcNAc(b1-2)[GlcNAc(b1-4)]Man(a1-3)[GlcNAc(b1-2)Man(a1-6)]Man(b1-4)GlcNAc(b1-4)GlcNAc
# Summary of the method: as §1
# [7] = target: GlcNAc(b1-2)[GlcNAc(b1-4)]Man(a1-3)[GlcNAc(b1-4)][GlcNAc(b1-2)Man(a1-6)]Man(b1-4)GlcNAc(b1-4)GlcNAc
# Summary of the method: as §1
# [8] = target: GlcNAc(b1-2)[GlcNAc(b1-4)]Man(a1-3)[GlcNAc(b1-4)][GlcNAc(b1-2)[GlcNAc(b1-6)]Man(a1-6)]Man(b1-4)GlcNAc(b1-4)GlcNAc
# Summary of the method: as §1
# [9] = target: GlcNAc(b1-2)[GlcNAc(b1-4)]Man(a1-3)[GlcNAc(b1-4)][GlcNAc(b1-2)[GlcNAc(b1-6)]Man(a1-6)]Man(b1-4)GlcNAc(b1-4)[Fuc(a1-6)]GlcNAc
# Summary of the method: as §1
# [10] = target: GlcNAc(b1-2)[GlcNAc(b1-6)]Man(a1-6)[GlcNAc(b1-2)Man(a1-3)]Man(b1-4)GlcNAc(b1-4)GlcNAc
# Summary of the method: as §1
# [11] = target: GlcNAc(b1-2)[GlcNAc(b1-6)]Man(a1-6)[GlcNAc(b1-2)Man(a1-3)]Man(b1-4)GlcNAc(b1-4)[Fuc(a1-6)]GlcNAc
# Summary of the method: as §1
# [12] = target: GlcNAc(b1-2)[GlcNAc(b1-6)]Man(a1-6)[GlcNAc(b1-4)][GlcNAc(b1-2)Man(a1-3)]Man(b1-4)GlcNAc(b1-4)GlcNAc
# Summary of the method: as §1
# [13] = target: GlcNAc(b1-3)Fuc
# Summary of the method: as §1
# [14] = target: GlcNAc(b1-3)Gal
# Summary of the method: as §1
# [15] = target: GlcNAc(b1-3)Gal(b1-3)GalNAc
# Summary of the method: as §1
# [16] = target: GlcNAc(b1-3)Gal(b1-4)Glc
# Summary of the method: as §1
# [17] = target: GlcNAc(b1-3)Gal(b1-4)GlcNAc
# Summary of the method: as §1
# [18] = target: GlcNAc(b1-3)Gal(b1-4)GlcNAc(b1-2)Man(a1-3)[GlcNAc(b1-3)Gal(b1-4)GlcNAc(b1-2)Man(a1-6)]Man(b1-4)GlcNAc(b1-4)GlcNAc
# Summary of the method: as §1
# [19] = target: GlcNAc(b1-3)Gal(b1-4)GlcNAc(b1-2)Man(a1-3)[GlcNAc(b1-3)Gal(b1-4)GlcNAc(b1-2)Man(a1-6)]Man(b1-4)GlcNAc(b1-4)[Fuc(a1-6)]GlcNAc
# Summary of the method: as §1
# [20] = target: GlcNAc(b1-3)Gal(b1-4)GlcNAc(b1-2)[GlcNAc(b1-3)Gal(b1-4)GlcNAc(b1-6)]Man(a1-6)[GlcNAc(b1-3)Gal(b1-4)GlcNAc(b1-2)Man(a1-3)]Man(b1-4)GlcNAc(b1-4)GlcNAc
# Summary of the method: as §1
# [21] = target: GlcNAc(b1-3)Gal(b1-4)GlcNAc(b1-3)Gal(b1-4)GlcNAc
# Summary of the method: as §1
# [22] = target: GlcNAc(b1-3)Gal(b1-4)GlcNAc(b1-3)Gal(b1-4)GlcNAc(b1-2)Man(a1-3)[GlcNAc(b1-3)Gal(b1-4)GlcNAc(b1-3)Gal(b1-4)GlcNAc(b1-2)Man(a1-6)]Man(b1-4)GlcNAc(b1-4)GlcNAc
# Summary of the method: as §1
# [23] = target: GlcNAc(b1-3)Gal(b1-4)GlcNAc(b1-3)Gal(b1-4)GlcNAc(b1-2)Man(a1-3)[GlcNAc(b1-3)Gal(b1-4)GlcNAc(b1-3)Gal(b1-4)GlcNAc(b1-2)Man(a1-6)]Man(b1-4)GlcNAc(b1-4)[Fuc(a1-6)]GlcNAc
# Summary of the method: as §1
# [24] = target: GlcNAc(b1-3)Gal(b1-4)GlcNAc(b1-3)Gal(b1-4)GlcNAc(b1-2)[GlcNAc(b1-3)Gal(b1-4)GlcNAc(b1-3)Gal(b1-4)GlcNAc(b1-6)]Man(a1-6)[GlcNAc(b1-3)Gal(b1-4)GlcNAc(b1-3)Gal(b1-4)GlcNAc(b1-2)Man(a1-3)]Man(b1-4)GlcNAc(b1-4)[Fuc(a1-6)]GlcNAc
# Summary of the method: as §1
# [25] = target: GlcNAc(b1-3)Gal(b1-4)GlcNAc(b1-3)Gal(b1-4)GlcNAc(b1-3)Gal(b1-4)GlcNAc(b1-2)Man(a1-3)[GlcNAc(b1-3)Gal(b1-4)GlcNAc(b1-3)Gal(b1-4)GlcNAc(b1-3)Gal(b1-4)GlcNAc(b1-2)Man(a1-6)]Man(b1-4)GlcNAc(b1-4)GlcNAc
# Summary of the method: as §1
# [26] = target: GlcNAc(b1-3)Gal(b1-4)GlcNAc(b1-3)Gal(b1-4)GlcNAc(b1-3)Gal(b1-4)GlcNAc(b1-2)Man(a1-3)[GlcNAc(b1-3)Gal(b1-4)GlcNAc(b1-3)Gal(b1-4)GlcNAc(b1-3)Gal(b1-4)GlcNAc(b1-2)Man(a1-6)]Man(b1-4)GlcNAc(b1-4)[Fuc(a1-6)]GlcNAc
# Summary of the method: as §1
# [27] = target: GlcNAc(b1-3)Gal(b1-4)GlcNAc(b1-3)Gal(b1-4)GlcNAc(b1-3)Gal(b1-4)GlcNAc(b1-2)[GlcNAc(b1-3)Gal(b1-4)GlcNAc(b1-3)Gal(b1-4)GlcNAc(b1-3)Gal(b1-4)GlcNAc(b1-6)]Man(a1-6)[GlcNAc(b1-3)Gal(b1-4)GlcNAc(b1-3)Gal(b1-4)GlcNAc(b1-3)Gal(b1-4)GlcNAc(b1-2)Man(a1-3)]Man(b1-4)GlcNAc(b1-4)[Fuc(a1-6)]GlcNAc
# Summary of the method: as §1
# [28] = target: GlcNAc(b1-3)Gal(b1-4)GlcNAc(b1-3)Gal(b1-4)GlcNAc(b1-3)Gal(b1-4)GlcNAc(b1-3)Gal(b1-4)GlcNAc(b1-2)Man(a1-3)[GlcNAc(b1-3)Gal(b1-4)GlcNAc(b1-3)Gal(b1-4)GlcNAc(b1-3)Gal(b1-4)GlcNAc(b1-3)Gal(b1-4)GlcNAc(b1-2)Man(a1-6)]Man(b1-4)GlcNAc(b1-4)GlcNAc
# Summary of the method: as §1
# [29] = target: GlcNAc(b1-3)Gal(b1-4)GlcNAc(b1-3)Gal(b1-4)GlcNAc(b1-3)Gal(b1-4)GlcNAc(b1-3)Gal(b1-4)GlcNAc(b1-2)Man(a1-3)[GlcNAc(b1-3)Gal(b1-4)GlcNAc(b1-3)Gal(b1-4)GlcNAc(b1-3)Gal(b1-4)GlcNAc(b1-3)Gal(b1-4)GlcNAc(b1-2)Man(a1-6)]Man(b1-4)GlcNAc(b1-4)[Fuc(a1-6)]GlcNAc
# Summary of the method: as §1
# [30] = target: GlcNAc(b1-3)Gal(b1-4)GlcNAc(b1-3)Gal(b1-4)GlcNAc(b1-3)Gal(b1-4)GlcNAc(b1-3)Gal(b1-4)GlcNAc(b1-2)[GlcNAc(b1-3)Gal(b1-4)GlcNAc(b1-3)Gal(b1-4)GlcNAc(b1-3)Gal(b1-4)GlcNAc(b1-3)Gal(b1-4)GlcNAc(b1-6)]Man(a1-6)[GlcNAc(b1-3)Gal(b1-4)GlcNAc(b1-3)Gal(b1-4)GlcNAc(b1-3)Gal(b1-4)GlcNAc(b1-3)Gal(b1-4)GlcNAc(b1-2)Man(a1-3)]Man(b1-4)GlcNAc(b1-4)[Fuc(a1-6)]GlcNAc
# Summary of the method: as §1
# [31] = target: GlcNAc(b1-3)Gal(b1-4)GlcNAc(b1-3)Gal(b1-4)GlcNAc(b1-3)GalNAc
# Summary of the method: as §1
# [32] = target: GlcNAc(b1-3)Gal(b1-4)GlcNAc(b1-3)GalNAc
# Summary of the method: as §1
# [33] = target: GlcNAc(b1-3)Gal(b1-4)GlcNAc(b1-3)[GlcNAc(b1-3)Gal(b1-4)GlcNAc(b1-3)]GalNAc
# Summary of the method: as §1
# [34] = target: GlcNAc(b1-3)Gal(b1-4)GlcNAc(b1-6)[Gal(b1-3)]GalNAc
# Summary of the method: as §1
# [35] = target: GlcNAc(b1-3)Gal(b1-4)GlcNAc(b1-6)[GlcNAc(b1-3)Gal(b1-3)]GalNAc
# Summary of the method: as §1
# [36] = target: GlcNAc(b1-3)Gal(b1-4)GlcNAc(b1-6)[GlcNAc(b1-3)]Gal(b1-4)GlcNAc
# Summary of the method: as §1
# [37] = target: GlcNAc(b1-3)GalNAc
# Summary of the method: as §1
binder,measurement,setting,value
GS13971A-bth-447-22-447 (Bacteroides thetaiotaomicron) (protein) EDVDNERSKGMFSASQSGFSTIEVYDLGPLNKIDLSIAKAGLEDTGGTVTFSVEQSLLDSLNNADGTSYQLLPPECYTIENATYSVSPGGDRRVTGGSLVYDPHKIYNLCGFDELKYVLPLRVSSTGTPMNSDRTATLYGFIVKEAIVRLASTGGDFVVEGGTTTSPMNLDTEISFENEWDLTTSFATKGADYVDNYNSANSTYYIPLPSDFYTLPDVTIAKGKTTGGSAISLLGETLPPGNYLLPVSLGGLSGQGDASINIDKETVANYFVIKQGGPINRDHWTVTANTEEKTGEVSAAYPHNGQTISLIDGEINTFWHSKWQGGEVAPPYEIILDMGKENSVSQLGLIARQNALTSMNLEIYAGDDGETWNLIGKYFFDGSIKTEQMVPVKACDARWIRIYIPTLGSGSSVGHLAEIYVYGTDK,glycan array binding signal (z-score),[1],-0.633
same,glycan array binding signal (z-score),[2],-0.257
same,glycan array binding signal (z-score),[3],1.39
same,glycan array binding signal (z-score),[4],-0.881
same,glycan array binding signal (z-score),[5],0.422
same,glycan array binding signal (z-score),[6],-1.32
same,glycan array binding signal (z-score),[7],1.48
same,glycan array binding signal (z-score),[8],-0.139
same,glycan array binding signal (z-score),[9],-0.86
same,glycan array binding signal (z-score),[10],0.703
same,glycan array binding signal (z-score),[11],-0.506
same,glycan array binding signal (z-score),[12],0.411
same,glycan array binding signal (z-score),[13],-0.602
same,glycan array binding signal (z-score),[14],-0.615
same,glycan array binding signal (z-score),[15],0.382
same,glycan array binding signal (z-score),[16],0.376
same,glycan array binding signal (z-score),[17],-0.19
same,glycan array binding signal (z-score),[18],-0.725
same,glycan array binding signal (z-score),[19],0.562
same,glycan array binding signal (z-score),[20],0.752
same,glycan array binding signal (z-score),[21],-0.549
same,glycan array binding signal (z-score),[22],1.15
same,glycan array binding signal (z-score),[23],0.306
same,glycan array binding signal (z-score),[24],-0.034
same,glycan array binding signal (z-score),[25],0.037
same,glycan array binding signal (z-score),[26],-0.698
same,glycan array binding signal (z-score),[27],2.94
same,glycan array binding signal (z-score),[28],0.959
same,glycan array binding signal (z-score),[29],0.389
same,glycan array binding signal (z-score),[30],1.1
same,glycan array binding signal (z-score),[31],-0.292
same,glycan array binding signal (z-score),[32],-0.083
same,glycan array binding signal (z-score),[33],-0.564
same,glycan array binding signal (z-score),[34],-0.311
same,glycan array binding signal (z-score),[35],-1.21
same,glycan array binding signal (z-score),[36],-0.796
same,glycan array binding signal (z-score),[37],-0.266

# Another view of part of the listing above:
binder	measurement	setting	value
GS13971A-bth-447-22-447 (Bacteroides thetaiotaomicron) (protein) EDVDNERSKGMFSASQSGFSTIEVYDLGPLNKIDLSIAKAGLEDTGGTVTFSVEQSLLDSLNNADGTSYQLLPPECYTIENATYSVSPGGDRRVTGGSLVYDPHKIYNLCGFDELKYVLPLRVSSTGTPMNSDRTATLYGFIVKEAIVRLASTGGDFVVEGGTTTSPMNLDTEISFENEWDLTTSFATKGADYVDNYNSANSTYYIPLPSDFYTLPDVTIAKGKTTGGSAISLLGETLPPGNYLLPVSLGGLSGQGDASINIDKETVANYFVIKQGGPINRDHWTVTANTEEKTGEVSAAYPHNGQTISLIDGEINTFWHSKWQGGEVAPPYEIILDMGKENSVSQLGLIARQNALTSMNLEIYAGDDGETWNLIGKYFFDGSIKTEQMVPVKACDARWIRIYIPTLGSGSSVGHLAEIYVYGTDK	glycan array binding signal (z-score)	[24]	-0.034
same	glycan array binding signal (z-score)	[35]	-1.21
